Measured values taken from publication PMC12166406.
These are yes or no findings as the source states them, for the method shown. Some binding calls cover weakened binding; strength is not graded here.

T1: phosphoribosyl pyrophosphate synthetase 2 (PRPS2) (human (endogenous in CA46, DG-75, P493-6)) (UniProt P11908)
T1 sequence: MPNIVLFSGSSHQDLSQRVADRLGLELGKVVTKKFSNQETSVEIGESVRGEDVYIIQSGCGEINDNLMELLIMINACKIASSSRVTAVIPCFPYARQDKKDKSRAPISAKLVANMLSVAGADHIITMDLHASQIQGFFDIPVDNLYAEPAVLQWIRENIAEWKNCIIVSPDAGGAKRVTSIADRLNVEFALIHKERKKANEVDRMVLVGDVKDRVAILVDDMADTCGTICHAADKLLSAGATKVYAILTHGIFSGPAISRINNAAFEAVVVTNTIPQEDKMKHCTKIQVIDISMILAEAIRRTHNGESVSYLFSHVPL

T2: phosphoribosyl pyrophosphate synthetase 1 (PRPS1) (human (endogenous in CA46, DG-75, P493-6)) (UniProt P60891)
T2 sequence: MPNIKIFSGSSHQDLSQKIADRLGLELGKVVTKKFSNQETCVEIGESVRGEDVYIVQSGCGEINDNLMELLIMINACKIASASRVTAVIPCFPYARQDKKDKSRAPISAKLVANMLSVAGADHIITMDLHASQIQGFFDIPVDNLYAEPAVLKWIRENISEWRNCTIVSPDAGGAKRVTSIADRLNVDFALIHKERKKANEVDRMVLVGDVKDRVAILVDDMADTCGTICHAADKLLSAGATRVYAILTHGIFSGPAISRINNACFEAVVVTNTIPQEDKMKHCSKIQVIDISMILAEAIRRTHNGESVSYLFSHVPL


Columns and labels:
[1] = target: T1, phosphoribosyl pyrophosphate synthetase 2 (PRPS2) (human (endogenous in CA46, DG-75, P493-6)); test: SEC; CA46 and DG-75 cell lysates (~200 ug; 50 mM Tris-Cl pH 7.5, 200 mM NaCl, 1 % digitonin, 1 mM TCEP, 1 mM MgCl2, benzonase) on Superose 6 Increase 3.2/300, mobile phase 0.1 M Na2HPO4, 0.1 M NaCl, pH 7.5; fractions analysed by Western blot against internal size standards
[2] = target: T2, phosphoribosyl pyrophosphate synthetase 1 (PRPS1) (human (endogenous in CA46, DG-75, P493-6)); test: SEC; P493-6 cell lysates, with tetracycline (MYC OFF) or without (MYC ON), on Superose 6 Increase 3.2/300, mobile phase 0.1 M Na2HPO4, 0.1 M NaCl, pH 7.5; fractions analysed by Western blot against internal size standards
[3] = target: T2, phosphoribosyl pyrophosphate synthetase 1 (PRPS1) (human (endogenous in CA46, DG-75, P493-6)); test: SEC; CA46 and DG-75 cell lysates (~200 ug; 50 mM Tris-Cl pH 7.5, 200 mM NaCl, 1 % digitonin, 1 mM TCEP, 1 mM MgCl2, benzonase) on Superose 6 Increase 3.2/300, mobile phase 0.1 M Na2HPO4, 0.1 M NaCl, pH 7.5; fractions analysed by Western blot against internal size standards

binding [1] | binding [2] | binding [3] | Binder
binds |  |  | PRPS associated protein 2 (PRPSAP2) (protein, UniProt O60256 1-369) MFCVTPPELETKMNITKGGLVLFSANSNSSCMELSKKIAERLGVEMGKVQVYQEPNRETRVQIQESVRGKDVFIIQTVSKDVNTTIMELLIMVYACKTSCAKSIIGVIPYFPYSKQCKMRKRGSIVSKLLASMMCKAGLTHLITMDLHQKEIQGFFNIPVDNLRASPFLLQYIQEEIPDYRNAVIVAKSPASAKRAQSFAERLRLGIAVIHGEAQDAESDLVDGRHSPPMVRSVAAIHPSLEIPMLIPKEKPPITVVGDVGGRIAIIVDDIIDDVDSFLAAAETLKERGAYKIFVMATHGLLSSDAPRRIEESAIDEVVVTNTIPHEVQKLQCPKIKTVDISMILSEAIRRIHNGESMSYLFRNIGLDD
 | binds | binds | phosphoribosyl pyrophosphate synthetase 2 (PRPS2) (enzyme, UniProt P11908 1-318) MPNIVLFSGSSHQDLSQRVADRLGLELGKVVTKKFSNQETSVEIGESVRGEDVYIIQSGCGEINDNLMELLIMINACKIASSSRVTAVIPCFPYARQDKKDKSRAPISAKLVANMLSVAGADHIITMDLHASQIQGFFDIPVDNLYAEPAVLQWIRENIAEWKNCIIVSPDAGGAKRVTSIADRLNVEFALIHKERKKANEVDRMVLVGDVKDRVAILVDDMADTCGTICHAADKLLSAGATKVYAILTHGIFSGPAISRINNAAFEAVVVTNTIPQEDKMKHCTKIQVIDISMILAEAIRRTHNGESVSYLFSHVPL
